Laboratory results: the supplement of paper PMC10849652
The list shows a part of the results.

Chains of the proteins cited; added tags and fusions are not shown. Lines headed by an entry give the natural chain unless they say otherwise; changes in a name come on top.
UniProt Q9UKN8: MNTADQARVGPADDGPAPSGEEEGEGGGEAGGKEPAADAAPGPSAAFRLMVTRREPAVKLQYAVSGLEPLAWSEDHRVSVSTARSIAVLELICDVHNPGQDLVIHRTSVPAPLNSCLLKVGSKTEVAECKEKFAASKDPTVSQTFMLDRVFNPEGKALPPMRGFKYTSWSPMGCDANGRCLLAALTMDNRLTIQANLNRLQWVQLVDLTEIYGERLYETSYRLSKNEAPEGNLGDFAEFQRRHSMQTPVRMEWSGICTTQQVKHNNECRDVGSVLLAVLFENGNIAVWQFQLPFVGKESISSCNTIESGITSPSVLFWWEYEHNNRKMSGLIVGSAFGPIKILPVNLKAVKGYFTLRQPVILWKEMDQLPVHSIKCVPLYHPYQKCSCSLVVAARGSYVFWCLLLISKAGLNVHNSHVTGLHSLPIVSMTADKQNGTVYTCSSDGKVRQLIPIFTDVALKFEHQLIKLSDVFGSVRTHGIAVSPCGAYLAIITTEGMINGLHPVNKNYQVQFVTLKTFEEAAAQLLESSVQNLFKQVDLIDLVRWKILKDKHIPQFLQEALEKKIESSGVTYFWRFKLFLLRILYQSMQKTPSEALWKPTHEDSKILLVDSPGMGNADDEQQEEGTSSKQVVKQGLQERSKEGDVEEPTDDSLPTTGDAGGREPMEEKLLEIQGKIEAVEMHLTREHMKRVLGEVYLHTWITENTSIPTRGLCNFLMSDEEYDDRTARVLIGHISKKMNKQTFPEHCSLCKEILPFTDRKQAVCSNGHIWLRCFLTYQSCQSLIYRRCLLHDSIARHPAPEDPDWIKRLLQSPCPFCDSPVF
UniProt Q16774: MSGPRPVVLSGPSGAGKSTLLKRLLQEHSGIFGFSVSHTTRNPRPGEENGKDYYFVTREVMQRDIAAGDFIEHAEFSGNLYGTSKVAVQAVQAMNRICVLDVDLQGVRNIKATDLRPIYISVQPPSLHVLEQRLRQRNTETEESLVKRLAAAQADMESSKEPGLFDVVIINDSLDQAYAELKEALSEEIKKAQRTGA
UniProt Q9NYZ3: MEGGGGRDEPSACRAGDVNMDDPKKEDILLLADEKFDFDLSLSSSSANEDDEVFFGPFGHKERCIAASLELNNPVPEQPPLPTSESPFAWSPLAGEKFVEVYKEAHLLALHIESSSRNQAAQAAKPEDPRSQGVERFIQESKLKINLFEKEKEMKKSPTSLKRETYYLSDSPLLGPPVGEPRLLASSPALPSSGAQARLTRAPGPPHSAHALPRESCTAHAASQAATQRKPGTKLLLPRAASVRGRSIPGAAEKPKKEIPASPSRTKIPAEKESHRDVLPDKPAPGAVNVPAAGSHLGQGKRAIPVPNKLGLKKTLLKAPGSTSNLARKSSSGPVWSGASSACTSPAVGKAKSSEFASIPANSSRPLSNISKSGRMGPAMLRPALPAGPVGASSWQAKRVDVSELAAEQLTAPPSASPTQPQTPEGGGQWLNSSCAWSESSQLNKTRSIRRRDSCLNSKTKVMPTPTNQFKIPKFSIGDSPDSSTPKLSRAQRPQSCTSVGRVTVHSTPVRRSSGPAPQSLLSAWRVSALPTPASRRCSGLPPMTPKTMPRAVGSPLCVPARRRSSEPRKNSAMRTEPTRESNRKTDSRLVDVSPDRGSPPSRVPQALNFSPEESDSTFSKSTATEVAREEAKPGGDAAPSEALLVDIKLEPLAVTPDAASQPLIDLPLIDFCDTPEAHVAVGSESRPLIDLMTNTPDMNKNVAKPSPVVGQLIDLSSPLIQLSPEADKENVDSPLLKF
UniProt Q8WW33: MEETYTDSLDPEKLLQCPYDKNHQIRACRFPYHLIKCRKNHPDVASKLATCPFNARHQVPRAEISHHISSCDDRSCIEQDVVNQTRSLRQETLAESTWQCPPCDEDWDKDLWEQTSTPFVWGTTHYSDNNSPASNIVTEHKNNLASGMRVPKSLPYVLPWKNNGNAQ
UniProt P13807: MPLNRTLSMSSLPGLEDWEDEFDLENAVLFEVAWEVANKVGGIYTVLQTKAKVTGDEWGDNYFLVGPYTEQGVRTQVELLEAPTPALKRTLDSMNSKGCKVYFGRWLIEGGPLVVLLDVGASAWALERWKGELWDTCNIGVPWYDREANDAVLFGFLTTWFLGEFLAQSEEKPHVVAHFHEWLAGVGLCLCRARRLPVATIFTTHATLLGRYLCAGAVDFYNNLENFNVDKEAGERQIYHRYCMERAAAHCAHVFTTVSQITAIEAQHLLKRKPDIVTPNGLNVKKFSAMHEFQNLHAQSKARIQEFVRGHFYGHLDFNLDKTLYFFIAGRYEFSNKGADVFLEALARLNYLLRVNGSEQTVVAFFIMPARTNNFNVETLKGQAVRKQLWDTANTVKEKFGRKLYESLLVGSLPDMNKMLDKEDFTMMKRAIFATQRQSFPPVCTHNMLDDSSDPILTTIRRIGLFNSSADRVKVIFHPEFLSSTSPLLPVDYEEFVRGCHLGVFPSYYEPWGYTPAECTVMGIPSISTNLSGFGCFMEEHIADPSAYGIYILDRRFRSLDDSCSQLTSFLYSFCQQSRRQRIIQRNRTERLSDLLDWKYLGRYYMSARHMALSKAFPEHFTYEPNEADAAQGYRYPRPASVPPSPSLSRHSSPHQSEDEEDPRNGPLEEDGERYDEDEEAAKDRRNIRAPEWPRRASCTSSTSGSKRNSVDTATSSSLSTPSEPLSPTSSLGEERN
UniProt P16402, whole entry, looked up: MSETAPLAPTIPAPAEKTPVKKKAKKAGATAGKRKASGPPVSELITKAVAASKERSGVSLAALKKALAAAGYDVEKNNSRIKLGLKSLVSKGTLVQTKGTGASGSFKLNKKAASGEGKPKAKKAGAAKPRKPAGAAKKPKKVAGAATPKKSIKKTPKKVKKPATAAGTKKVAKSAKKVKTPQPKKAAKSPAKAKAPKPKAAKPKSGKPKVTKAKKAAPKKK
UniProt Q9Y450, whole entry, looked up: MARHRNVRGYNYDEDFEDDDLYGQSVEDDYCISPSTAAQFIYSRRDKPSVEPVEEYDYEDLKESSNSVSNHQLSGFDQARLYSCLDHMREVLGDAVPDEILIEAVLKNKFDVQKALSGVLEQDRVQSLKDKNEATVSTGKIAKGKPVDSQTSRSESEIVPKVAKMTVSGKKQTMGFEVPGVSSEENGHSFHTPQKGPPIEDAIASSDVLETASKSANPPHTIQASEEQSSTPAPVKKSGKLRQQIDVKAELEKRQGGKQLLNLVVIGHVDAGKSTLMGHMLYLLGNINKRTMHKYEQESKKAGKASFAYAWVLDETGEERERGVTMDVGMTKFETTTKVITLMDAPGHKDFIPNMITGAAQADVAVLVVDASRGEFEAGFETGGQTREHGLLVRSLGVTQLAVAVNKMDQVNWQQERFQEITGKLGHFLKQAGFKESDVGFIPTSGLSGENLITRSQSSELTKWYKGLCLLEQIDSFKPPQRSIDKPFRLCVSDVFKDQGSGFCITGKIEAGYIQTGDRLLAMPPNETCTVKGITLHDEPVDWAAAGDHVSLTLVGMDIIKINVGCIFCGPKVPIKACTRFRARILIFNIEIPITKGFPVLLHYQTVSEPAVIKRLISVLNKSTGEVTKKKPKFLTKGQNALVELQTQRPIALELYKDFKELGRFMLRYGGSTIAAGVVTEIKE
UniProt P13984, whole entry, looked up: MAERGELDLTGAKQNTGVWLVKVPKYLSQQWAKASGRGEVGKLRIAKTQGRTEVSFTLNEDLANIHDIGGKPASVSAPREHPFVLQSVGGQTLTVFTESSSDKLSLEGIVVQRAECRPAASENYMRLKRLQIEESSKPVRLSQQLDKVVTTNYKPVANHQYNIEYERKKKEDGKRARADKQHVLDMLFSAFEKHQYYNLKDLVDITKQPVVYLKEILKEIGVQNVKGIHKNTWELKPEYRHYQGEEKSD
UniProt P02724: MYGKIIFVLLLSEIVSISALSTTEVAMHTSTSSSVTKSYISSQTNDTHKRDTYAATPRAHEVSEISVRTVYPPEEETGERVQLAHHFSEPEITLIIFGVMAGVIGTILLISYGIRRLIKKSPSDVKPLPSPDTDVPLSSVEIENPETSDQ

Experiments:
Experiment in all cases: log2 fold change, soluble protein after heating vs DMSO (PISA); higher = thermal stabilisation; K562 cells, 10 uM, 30 min; active = over 0.2 and 3.5 SD of the protein, either way, in both replicates (recomputed)
[1] = compound: C1=CC=C(C=C1)[C@H](COC2=CC3=C(C=C2)NC(=O)N3)NC(=O)C4=CC=CN(C4=O)CC5=CC(=C(C=C5)F)F
Method in brief: (§1)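 K562 cells at 2×10^6 cells/mL were exposed to 10 μM compound for 30 min, then aliquots were heated for 3 min across 48°C-58°C, pooled, and extracted in PBS containing 0.5% NP-40 at 4°C. The supernatant after 21,000xg for 90 min was taken as soluble protein and measured by TMTpro 16plex LC-MS/MS with channel sums equalised. Thermal stability is reported relative to control samples, with values from duplicates. Fold changes are given on a log2 scale.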

[2] = compound: CC1=C(SC2=C1C(=N[C@H](C3=NN=C(N32)C)CC(=O)N)C4=CC=C(C=C4)Cl)C
Method in brief: as §1

[3] = compound: CC1=C2C(=CC=C1)N=C(N(C2=O)C3=CC=CC=C3C)CN4C=NC5=C(N=CN=C54)N
Method in brief: as §1

[4] = compound: Cc1sc2c(c1C)C(c1ccc(Cl)cc1)=N[C@@H](CC(=O)OC(C)(C)C)c1nnc(C)n1-2
Method in brief: as §1

[5] = compound: c1ccc([C@@H]2C[C@H]2NC2CCNCC2)cc1
Method in brief: as §1

Measured: log2 fold change

GTF3C4 (UniProt Q9UKN8)
inactive: [1] 0.027 | [2] 0.065 | [3] 0.143 | [4] 0.02 | [5] 0.025

GUK1 isoform 2 (UniProt Q16774)
inactive: [1] -0.042 | [2] 0.003 | [3] 0.084 | [4] -0.021 | [5] 0.031

GTSE1 (UniProt Q9NYZ3)
inactive: [1] -0.104 | [2] -0.2 | [3] -0.042 | [4] 0.098 | [5] 0.042

GTSF1 (UniProt Q8WW33)
inactive: [1] 0.026 | [2] 0.016 | [3] 0.012 | [4] -0.002 | [5] 0.008

GYS1 (UniProt P13807)
inactive: [1] 0.007 | [2] -0.13 | [3] -0.02 | [4] 0.023 | [5] 0.054

H1-3 (UniProt P16402)
inactive: [1] 0.139 | [2] -0.288 | [3] -0.299 | [4] 0.025 | [5] 0

Reprinted from the listing (2 entries):
GYS1 (UniProt P13807)
inactive: [1] 0.007 | [2] -0.13 | [3] -0.02 | [4] 0.023 | [5] 0.054

H1-3 (UniProt P16402)
inactive: [1] 0.139 | [2] -0.288 | [3] -0.299 | [4] 0.025 | [5] 0

Next part:

HBS1L (UniProt Q9Y450)
inactive: [1] -0.024 | [2] 0.02 | [3] 0.062 | [4] -0.001 | [5] -0.008

GTF2F2 (UniProt P13984)
inactive: [1] -0.004 | [2] 0.044 | [3] 0.077 | [4] -0.005 | [5] -0.011

GYPA (UniProt P02724)
inactive: [1] 0.005 | [2] -0.029 | [3] -0.099 | [4] 0.017 | [5] -0.011
